Measured values taken from the supplement of paper PMC8497498.
± gives the standard deviation of the averaged measurements. Some of the results follow. The data scatter; read single values as rough.

Tests used:
Details in all cases: 10 µM
[1] = tested on: Plasmodium vivax liver stage (primary human hepatocyte culture); test: hypnozoite quantity inhibition (% inhibition); higher = more active against hypnozoites
[2] = tested on: Plasmodium vivax liver stage (primary human hepatocyte culture); test: schizont net growth area inhibition (% inhibition); higher = more active against liver schizonts
[3] = tested on: primary human hepatocytes; test: hepatic nuclei reduction relative to DMSO (100 - % of negative control); higher = more toxic to hepatocytes
[4] = assay mode: Prophylactic (treated before or shortly after infection), fixed day 6 post-infection
[5] = assay mode: Radical Cure (treated from day 5 post-infection for 3 days), fixed day 8 post-infection

Row | SMILES | hypnozoite quantity inhibition [1, 4] | hypnozoite quantity inhibition [1, 5] | schizont net growth area inhibition [2, 4] | schizont net growth area inhibition [2, 5] | hepatic nuclei reduction [3, 4] | hepatic nuclei reduction [3, 5]
1 | COc1ccc2nc(C)cc(Nc3ccccc3O)c2c1 | -8 | 38.2 | 4.6 | -12.4 | -4% | -4%
2 | COCCN(C(=O)Cc1cccs1)C(C(=O)NCc1ccc(OC)cc1)c1ccc(C(C)C)cc1 (stereo not drawn) | 2.5 | 21 | -27.1 | 31.1 | -5% | -13%
3 | COC(=O)C1=C(C)NC(C)=C(C(=O)OC(C)C)C1c1cccc2nonc12 (stereo not drawn) | 22 | -25 | -12.2 | -35.9 | 1% | -4%
4 | O=C(Nc1ccccc1)c1ccc(-c2cc3ccncc3cc2OC2CCNCC2)s1 | 11 | -2 | 71.6 | -19.8 | 6% | 2%
5 | O=C(Nc1ccc(CN2CCOCC2)cc1)c1ccc(-c2cc(Cl)ccc2Cl)o1 | -47.4 | 1.5 | 5.1 | -54.6 | -12% | -8%
6 | CCOc1ccccc1C(=O)Nc1cccc(-c2nc3ncccn3c2C)c1 | -45 | 7 | 39.8 | 28.8 | -2% | -8%
7 | COc1ccc(-c2nc(NC(=O)CS(=O)(=O)c3ccc(F)cc3)sc2C)cc1 | 1.7 | 19.8 | 51.9 | -34.4 | 15% | 0%
8 | Cc1ccc(-c2cc3nc4c(c(O)n3n2)CCCC4)cc1 | -27.3 | 29 | -22.2 | 46.3 | -13% | -1%
9 | Cc1ccc(Nc2nc(NCCO)c3ccccc3n2)cc1C | 10.7 | 18.3 | -371 | 61.1 | 1% | 10%
10 | COc1cc(C2=NCCN2)cc2cc(-c3ccc(C4=NCCN4)cc3)oc12 | 46 | -10 | -28.2 | -27 | 1% | 2%
11 | COc1ccc(-n2ccnc2SCC(=O)Nc2cc(C)ccc2C)c(OC)c1 | -28.4 | 45.5 | -6.6 | -21.9 | 5% | -5%
12 | COC(=O)Nc1nc2cc(C(=O)c3ccccc3)ccc2[nH]1 | -96 | -31 | 90.9 | -17.7 | -7% | -1%
13 | O=C(Nc1nnc(-c2ccc(Cl)s2)o1)c1ccc(Cl)s1 | -71 | 1 | 11.2 | -57.1 | -1% | 10%
14 | CC(C)(C)c1cc(C(=O)N2CCN(c3nccnc3C#N)CC2)n(Cc2ccccc2)n1 | 27 | -25 | 26.4 | -187 | 7% | 3%
15 | CC1=NN(c2nc3ccccc3s2)C(=O)C1Cc1cccc2ccccc12 (stereo not drawn) | -6 | 6 | 26.6 | -147 | -3% | 3%
16 | COc1ccc(-c2nc(-c3cccc(NC(=O)Cc4ccc(F)cc4)c3)no2)cc1OC | -38 | -2 | 0.3 | -5.4 | -7% | -7%
17 | Cc1c(C)n(CC(O)CNC2CCCCC2C)c2ccccc12 (stereo not drawn) | -20.9 | -68.9 | 6 | -33.6 | 0% | -15%
18 | CCOc1ccc(C=Cc2nc(=O)c3ccccc3o2)cc1 | 16.5 | 15.3 | 53.9 | 42.9 | -18% | 11%
19 | FC(F)(F)c1cccc(-c2nc3c(NCc4ccncc4)nccc3[nH]2)c1 | 13 | -7 | 15.7 | -51.3 | -13% | -4%
20 | Cc1cc(C)c2c(c1)OCN(Cc1ccccc1Cl)C2 | -6.5 | 45 | 32.1 | 13.6 | 1% | 0%

Row | SMILES | hypnozoite quantity inhibition [1, 4] | hypnozoite quantity inhibition [1, 5] | schizont net growth area inhibition [2, 4] | schizont net growth area inhibition [2, 5] | hepatic nuclei reduction [3, 4] | hepatic nuclei reduction [3, 5]
21 | O=c1nc(C=Cc2ccc(Br)cc2)oc2ccccc12 | -53.3 | 45 | 22.2 | -37.2 | -2% | 2%
22 | NC(=O)c1cc(Br)ccc1OCCOc1ccccc1 | 42 | -12 | 28.4 | -91.2 | -5% | -11%
23 | COc1ccc(C(O)(CCC(C)C)C(CN2CCOCC2)c2ccc(Cl)cc2)cc1 (stereo not drawn) | 27.8 | 23.7 | 54.5 | -7.1 | -2% | 1%
24 | COc1ccc(-c2nonc2NC(=O)c2cccc(C)c2)cc1OC | 3.2 | 29.2 | 14.1 | -13.8 | -8% | -10%
25 | Cc1ccc2[nH]c3c(NCCN(C)C)ncnc3c2c1 | 24 | -57 | 47 | -191 | 0% | -5%
26 | COc1ccc(C(=O)C(CCC(CNC(C)(C)C)C(=O)c2ccc(OC)cc2)CNC(C)(C)C)cc1 (stereo not drawn) | -2 | 67.9 | 42.9 | -69.2 | -3% | 10%
27 | Cn1ncc2c(N3CCOCC3)nc(NCCc3c[nH]c4ccccc34)nc21 | 10 | -112 | -1.1 | -17.7 | 6% | 8%
28 | N=C(N)c1ccc(OCCCCCOc2ccc(C(=N)N)cc2)cc1 | 8.5 ± 22 | 9.5 ± 64 | 59.9 ± 13 | 72.5 ± 32 | -4% | -9 ± 1.4%
29 | CCCCCCc1cc2cc(-c3nc4ccccc4[nH]3)c(=Nc3ccccc3C)oc2cc1O | 24 | 7.4 | 22.7 | -62 | -1% | 0%
30 | CO[C@H]1/C=C/O[C@@]2(C)Oc3c(C)c(O)c4c(O)c(c(/C=N/N5CCN(C)CC5)c(O)c4c3C2=O)NC(=O)/C(C)=C\C=C\[C@@H](C)[C@@H](O)[C@@H](C)[C@H](O)[C@H](C)[C@@H](OC(C)=O)[C@H]1C | 0 | 14 | -94.2 | 12.2 | -5% | 6%
31 | CC(=O)N(CCN(C(=O)c1ccc(F)cc1)c1ccccc1)c1ccccc1 | -11 | -15 | -10.3 | -79.2 | -12% | -3%
32 | CN1CCN(S(=O)(=O)c2ccc(-c3ccc4c(Nc5ncc(Cl)cn5)ccnc4c3)cc2)CC1 | 1 | 6 | 59.9 | -66.3 | -5% | -13%
33 | O=C(Nc1cccc(-c2nc3ccccc3[nH]2)c1)c1cccc(NC(=O)c2ccco2)c1 | 10.1 | 59.1 | 80.5 | 46.8 | 5% | -4%
34 | O=C(NC1CC1)c1ccc(N2CCC(Cc3ccccc3)CC2)nc1 | 32 | -25 | 21.8 | -77.2 | 11% | 2%
35 | O=C1CC(O)(C(F)(F)C(F)(F)F)Oc2ccccc21 (stereo not drawn) | -13.9 | 56.5 | 77.8 | 40.5 | -5% | 5%
36 | CCOc1ccc2nc(C)cc(Nc3ccc(N(C)C)cc3)c2c1 | 6.3 | 21 | -4.5 | 72.3 | 14% | -1%
37 | COc1ccc(CN2CCCC(C(=O)c3ccc(C(F)(F)F)cc3)C2)c(O)c1 (stereo not drawn) | -32.2 | -33.5 | -11.3 | 20.2 | -3% | -5%
38 | COC(=O)c1ccc(Cl)c2c1C1C=CCC1C(c1cccc3ccccc13)N2 (stereo not drawn) | -14.7 | 17.6 | -10.7 | -24.7 | -4% | -4%
39 | COc1ccc(-c2nnc3ccc(-c4cccc(C(C)C)c4)cn23)cc1OC | 41 | -12 | 25.8 | -21.8 | 3% | -10%
40 | O=C1c2ccc3c4c(ccc(c24)C(=O)N1CCCCO)C(=O)N(CCCCO)C3=O | 31.4 | 74.8 | 75.7 | 85.4 | 1% | 2%

Random excerpt: five records from the list, in no set order.
Row | SMILES | hypnozoite quantity inhibition [1, 4] | hypnozoite quantity inhibition [1, 5] | schizont net growth area inhibition [2, 4] | schizont net growth area inhibition [2, 5] | hepatic nuclei reduction [3, 4] | hepatic nuclei reduction [3, 5]
2 | COCCN(C(=O)Cc1cccs1)C(C(=O)NCc1ccc(OC)cc1)c1ccc(C(C)C)cc1 (stereo not drawn) | 2.5 | 21 | -27.1 | 31.1 | -5% | -13%
1 | COc1ccc2nc(C)cc(Nc3ccccc3O)c2c1 | -8 | 38.2 | 4.6 | -12.4 | -4% | -4%
7 | COc1ccc(-c2nc(NC(=O)CS(=O)(=O)c3ccc(F)cc3)sc2C)cc1 | 1.7 | 19.8 | 51.9 | -34.4 | 15% | 0%
32 | CN1CCN(S(=O)(=O)c2ccc(-c3ccc4c(Nc5ncc(Cl)cn5)ccnc4c3)cc2)CC1 | 1 | 6 | 59.9 | -66.3 | -5% | -13%
6 | CCOc1ccccc1C(=O)Nc1cccc(-c2nc3ncccn3c2C)c1 | -45 | 7 | 39.8 | 28.8 | -2% | -8%

Further records.

Row | SMILES | hypnozoite quantity inhibition [1, 4] | hypnozoite quantity inhibition [1, 5] | schizont net growth area inhibition [2, 4] | schizont net growth area inhibition [2, 5] | hepatic nuclei reduction [3, 4] | hepatic nuclei reduction [3, 5]
41 | COc1ccc(Cl)cc1NC(=O)CN(C)C(=O)c1cnn(-c2ccccc2)n1 | 7 | -15 | 55 | -106 | 0% | -4%
42 | CC(=O)Oc1ccccc1C(=O)Nc1ncc([N+](=O)[O-])s1 | 5 | -4 | 15.3 | -3.7 | -2% | -7%
43 | Cc1cc(N(C)C)nc(Nc2ccc(NC(=O)Nc3ccccc3)cc2)n1 | 35.4 | 7.4 | 100 | 49 | 0% | -11%
44 | O=C(NC1CCCCC1)N1CCN(Cc2ccc3c(c2)OCO3)CC1 | -13 | -10 | 10.8 | 15 | 1% | -4%
45 | COc1ccc(-c2nc3cc(Cc4ccc5[nH]c(-c6ccc(OC)cc6)nc5c4)ccc3[nH]2)cc1 | 1.7 | 15.3 | 35.9 | -21 | 21% | -6%
46 | COc1cc(NC(C)CCCN)c2nccc(C)c2c1Oc1ccc(Cl)c(Cl)c1 (stereo not drawn) | -26 | 18 | 71.1 | 28.6 | 4% | -6%
47 | CSc1nc(O)nc(-c2ccc(Cl)cc2)n1 | -26 | 3.6 ± 20 | 53.9 | 11.9 ± 12 | -12% | -5.5 ± 0.71%
48 | O=c1cc(NC2CCN(CCCc3ccccc3)CC2)c2cc(Cl)ccc2o1 | -22.1 | 67.3 | 20.4 | -83.4 | 0% | -6%
49 | O=C(NC(c1ccccc1)c1ccc2cccnc2c1O)c1ccccc1 (stereo not drawn) | 34.8 | -14.4 | 95.5 | 42.5 | -1% | -5%
50 | CCOc1cc2c(cc1OCC)C(c1cc(C)c(O)c(C)c1)NCC2 (stereo not drawn) | 27.2 | 53.7 | 34.7 | -10.6 | -2% | 10%
51 | CC(=O)NCCc1nc2ccccc2n1Cc1ccc(C(C)C)cc1 | 7 | 1.9 | 41.2 | 5.9 | 5% | -5%
52 | c1ccc(-c2[nH]c3ccccc3c2C(c2ccccn2)N2CCCC2)cc1 (stereo not drawn) | 31 | 3 | 15.5 | -41.9 | -2% | 0%
53 | CC(=O)NC[C@H]1CN(c2ccc(N3CCSCC3)c(F)c2)C(=O)O1 | 27 | 3 | 4.2 | -178 | -9% | -9%
54 | CC1Cc2c([nH]c3cc(Cl)c(F)cc23)C2(N1)C(=O)Nc1ccc(Cl)cc12 (stereo not drawn) | -42 | -1 | 28.5 | 67.9 | -9% | -2%
55 | CCCN(CCC)CCCNC(=O)c1cc2c(-c3ccc(OC)c(OC)c3)nn(C)c2s1 | 8.8 | 21 | 42.5 | 9.9 | 4% | -1%
56 | C=C(NC(=O)C(=C)NC(=O)c1csc(C2=NC3c4csc(n4)C4NC(=O)c5csc(n5)C(C(C)(O)C(C)O)NC(=O)C5CSC(=N5)C(=CC)NC(=O)C(C(C)O)NC(=O)c5csc(n5)C3(CC2)NC(=O)C(C)NC(=O)C(=C)NC(=O)C(C)NC(=O)C(C(C)CC)NC2C=Cc3c(C(C)O)cc(nc3C2O)C(=O)OC4C)n1)C(N)=O (stereo not drawn) | 12 | -4 | 98.9 | 42.4 | 10% | -2%
57 | Nc1ccn(C2O[C@H](CO)[C@@H](O)[C@H]2O)c(=O)n1 (stereo partly drawn) | 22.7 | 21 | 2.8 | 27.6 | 1% | -6%
58 | CCCCCn1c(=N)n(CC(O)COc2cccc(C)c2)c2ccccc21 (stereo not drawn) | -12.5 | 58.8 | -13 | 3.1 | 1% | 1%
